Data as given in PubChem BioAssay AID504804 (Drosophila RNAi Screening Center, 2011).
In all, the deposit lists about 19,000 reagents; below is an unselected part of those that have a named target and a result. In the full data, 47 (0.25%) were called active. 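Signals are raw, not normalised; exact z-scores behind calls not deposited; actives needed confirmation, so some wells reaching 2 SD are inactive.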 Unmarked entries are inactive. Reagents against one gene are numbered here. Names joined by + are all predicted targets of the reagent.

Test: 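Knock-downs shielding fly cells from apoptosis caused by DNA damage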 (primary screen)
Cells: Drosophila Kc cells
Knock-down reagent: long dsRNA against Drosophila genes, 0.5 µg dsRNA per well
Time to read-out: 96 h (48 h knock-down, then 48 h drug)
Treatment: doxorubicin 5 µg/ml for 48 h, added 48 h after dsRNA
Read-out: 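Viability measured as cellular ATP by luminescence after 48 h knock-down then 48 h doxorubicin at 5 µg/ml; unnormalised plate counts for each replicate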
Scale: raw ATP luminescence: higher = more viable cells, protection from doxorubicin
Rule for the call: 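Active when both duplicate wells lie at least 2 SD above the plate mean and protection is confirmed by rescreening and independent dsRNAs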

| raw ATP luminescence, replicate 1 | raw ATP luminescence, replicate 2 | gene | dsRNA no. |
| --- | --- | --- | --- |
| 22883 | 24067 | Su(Tpl) | 1 |
| 30063 | 31407 | E(z) | 1 |
| 44963 | 36210 | Tollo | 1 |
| 91543 | 85913 | CG34002 | 1 |
| 51013 | 53967 | CG34002 | 2 |
| 1.16e5 | 84290 | tup | 1 |
| 76473 | 96833 | CG30076 | 1 |
| 1.21e5 | 73837 | Vps53 | 1 |
| 2.01e5 | 1.78e5 | CG6144 | 1 |
| 60927 | 56313 | Amyrel | 1 |
| 98223 | 88327 | hebe | 1 |
| 91647 | 44527 | hebe | 2 |
| 81527 | 46270 | Ndg | 1 |
| 45683 | 62473 | Ccs | 1 |
| 46293 | 50890 | CG13603 | 1 |
| 1.21e5 | 70363 | Atg4a | 1 |
| 68860 | 23990 | bcn92 | 1 |
| 1.15e5 | 70803 | Pkg21D | 1 |
| 36130 | 57743 | Pex2 | 1 |
| 64790 | 51770 | CG11269 | 1 |
| 1.05e5 | 53640 | obst-E | 1 |
| 74820 | 73950 | kek3 | 1 |
| 41833 | 91273 | Etf-QO | 1 |
| 2.47e5 | 3.24e5 | beat-VII | 1 |
| 34370 | 49950 | beat-VII | 2 |
| 33830 | 37140 | beat-VII | 3 |
| 47580 | 60190 | CG9899 | 1 |
| 2.99e5 | 2.15e5 | Eo | 1 |
| 66820 | 80043 | NimC4 | 1 |
| 35020 | 35837 | RpL21 | 1 |
| 3.42e5 | 3.14e5 | CG31710 | 1 |

Entries above whose gene name starts with P or p (2):
| raw ATP luminescence, replicate 1 | raw ATP luminescence, replicate 2 | gene | dsRNA no. |
| --- | --- | --- | --- |
| 1.15e5 | 70803 | Pkg21D | 1 |
| 36130 | 57743 | Pex2 | 1 |

The list goes on.
| raw ATP luminescence, replicate 1 | raw ATP luminescence, replicate 2 | gene | dsRNA no. |
| --- | --- | --- | --- |
| 48457 | 27170 | CG9759 | 1 |
| 46190 | 64830 | ng4 | 1 |
| 58520 | 52183 | Teh1 | 1 |
| 2.11e5 | 1.65e5 | Arpc3B | 1 |
| 71903 | 73907 | CG5446 | 1 |
| 3.93e5 | 3.67e5 | CG14410 | 1 |
| 67343 | 75240 | Uba2 | 1 |
| 65050 | 71550 | wun | 1 |
| 93043 | 74500 | CG30010 | 1 |
| 61207 | 72060 | CG31559 | 1 |
| 53660 | 73907 | CG31559 | 2 |
| 2.05e5 | 2.19e5 | CG31337 | 1 |
| 54003 | 58600 | CG15820 | 1 |
| 2.91e5 | 2.99e5 | CG43902 | 1 |
| 59760 | 67020 | Vha100-4 | 1 |
| 61970 | 75970 | CG18682 (retired record) | 1 |
| 73030 | 69810 | CG18682 (retired record) | 2 |
| 62917 | 58703 | Taldo | 1 |
| 49830 | 62407 | l(3)psg2 | 1 |
| 44023 | 45747 | CG11300 | 1 |
| 42460 | 46440 | ey | 1 |
| 47973 | 66747 | La | 1 |
| 61540 | 74720 | moi + Tgs1 | 1 |
| 2.93e5 | 3.10e5 | Obp19b | 1 |
| 20857 | 18230 | CG7728 | 1 |
| 65777 | 32003 | CG9467 | 1 |
